According to ChEMBL document CHEMBL1130383, “Anesthetic activity of novel water-soluble 2 beta-morpholinyl steroids and their modulatory effects at GABAA receptors” (J Med Chem, 1997):

Target: GABA-A receptor; anion channel
Test: The concentration required to inhibit 50% of binding of [35S]TBPS to Gamma-aminobutyric acid A receptor to rat whole brain membranes.
Type: cell membranes

CC(=O)[C@H]1CC[C@H]2[C@@H]3CC[C@H]4C[C@H](O)CC[C@]4(C)[C@H]3C(=O)C[C@]12C [ALFAXALONE]
IC50: 538 nM
